End groups of sequences in plain letters are not given here.
Test: general procedure: Fmoc solid-phase peptide synthesis
Settings: whole synthesis

EARPALLTSRLRFIPK (listed as Homo sapiens)
final purity (method not given): 94.13%

— patent publication US10561703B2 (GEMVAX & KAEL CO., LTD., priority 2013, dated 2020)
